{
  "sequences": {"note": "Chains of the proteins cited; added tags and fusions are not shown.", "UniProt Q14145": "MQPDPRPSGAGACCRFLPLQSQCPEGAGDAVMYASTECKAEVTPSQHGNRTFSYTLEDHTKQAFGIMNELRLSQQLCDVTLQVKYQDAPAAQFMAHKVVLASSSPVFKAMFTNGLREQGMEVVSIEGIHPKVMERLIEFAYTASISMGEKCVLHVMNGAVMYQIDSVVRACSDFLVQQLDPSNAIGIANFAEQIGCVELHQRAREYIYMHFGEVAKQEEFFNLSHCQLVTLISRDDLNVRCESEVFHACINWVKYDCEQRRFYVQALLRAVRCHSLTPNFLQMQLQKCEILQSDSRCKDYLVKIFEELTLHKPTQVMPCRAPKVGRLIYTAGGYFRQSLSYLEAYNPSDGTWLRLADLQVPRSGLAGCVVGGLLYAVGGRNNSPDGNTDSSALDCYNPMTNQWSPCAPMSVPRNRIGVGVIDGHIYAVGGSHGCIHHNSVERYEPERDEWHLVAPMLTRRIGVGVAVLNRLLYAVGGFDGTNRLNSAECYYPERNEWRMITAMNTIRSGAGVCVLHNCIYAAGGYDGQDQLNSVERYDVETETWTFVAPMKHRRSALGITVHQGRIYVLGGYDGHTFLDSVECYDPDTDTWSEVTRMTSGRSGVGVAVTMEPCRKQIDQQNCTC"},
  "source": "paper PMC5141508",
  "target": "T1, NADPH oxidase 4 (human) (UniProt Q9NPH5)",
  "T1 sequence": "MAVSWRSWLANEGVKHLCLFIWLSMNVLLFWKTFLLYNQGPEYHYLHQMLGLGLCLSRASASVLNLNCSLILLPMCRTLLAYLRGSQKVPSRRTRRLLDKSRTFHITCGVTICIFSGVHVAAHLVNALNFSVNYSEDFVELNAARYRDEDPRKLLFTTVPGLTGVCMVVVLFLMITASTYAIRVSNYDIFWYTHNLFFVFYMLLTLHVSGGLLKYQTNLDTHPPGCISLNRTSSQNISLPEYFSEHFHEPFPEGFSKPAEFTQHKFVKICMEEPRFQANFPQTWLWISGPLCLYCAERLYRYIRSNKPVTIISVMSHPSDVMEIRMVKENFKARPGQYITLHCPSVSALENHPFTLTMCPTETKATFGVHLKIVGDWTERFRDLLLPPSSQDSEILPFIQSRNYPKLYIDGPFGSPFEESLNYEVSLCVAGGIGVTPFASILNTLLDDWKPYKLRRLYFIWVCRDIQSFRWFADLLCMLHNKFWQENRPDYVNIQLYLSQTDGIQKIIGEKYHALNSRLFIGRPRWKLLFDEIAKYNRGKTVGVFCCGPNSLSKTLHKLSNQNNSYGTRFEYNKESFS",
  "test": "co-IP; cells overexpressing human NOX4 (inducible) harvested in RIPA buffer under non denaturing conditions; pre-cleared with GammaBind Plus Sepharose beads; primary antibody 3 hours at 4 °C, beads 30 minutes at 4 °C; western blotting",
  "note": "Results are given in words; binding and its absence hold for the method and conditions named. Binding seen in cells or lysates may run through a third protein.",
  "data": [
    {"substance": "KEAP1 (from UniProt Q14145 1-624)", "values": [
      {"measurement": "binding", "value": "no binding"}
    ]}
  ]
}
